Test results published in PMC4550056.
These are yes or no findings as the source states them, for the method shown. For part of these data: In cells and extracts the contact can be indirect. Some entries that bind do so weakly or less than the wild type. For part of these data: Tags and fused reporters may be left off the sequences shown. Values belong to the binder of their own block, whether it stands above or below them.

By UniProt entry, the sequences of proteins in these tests, tags left out.
UniProt Q92547: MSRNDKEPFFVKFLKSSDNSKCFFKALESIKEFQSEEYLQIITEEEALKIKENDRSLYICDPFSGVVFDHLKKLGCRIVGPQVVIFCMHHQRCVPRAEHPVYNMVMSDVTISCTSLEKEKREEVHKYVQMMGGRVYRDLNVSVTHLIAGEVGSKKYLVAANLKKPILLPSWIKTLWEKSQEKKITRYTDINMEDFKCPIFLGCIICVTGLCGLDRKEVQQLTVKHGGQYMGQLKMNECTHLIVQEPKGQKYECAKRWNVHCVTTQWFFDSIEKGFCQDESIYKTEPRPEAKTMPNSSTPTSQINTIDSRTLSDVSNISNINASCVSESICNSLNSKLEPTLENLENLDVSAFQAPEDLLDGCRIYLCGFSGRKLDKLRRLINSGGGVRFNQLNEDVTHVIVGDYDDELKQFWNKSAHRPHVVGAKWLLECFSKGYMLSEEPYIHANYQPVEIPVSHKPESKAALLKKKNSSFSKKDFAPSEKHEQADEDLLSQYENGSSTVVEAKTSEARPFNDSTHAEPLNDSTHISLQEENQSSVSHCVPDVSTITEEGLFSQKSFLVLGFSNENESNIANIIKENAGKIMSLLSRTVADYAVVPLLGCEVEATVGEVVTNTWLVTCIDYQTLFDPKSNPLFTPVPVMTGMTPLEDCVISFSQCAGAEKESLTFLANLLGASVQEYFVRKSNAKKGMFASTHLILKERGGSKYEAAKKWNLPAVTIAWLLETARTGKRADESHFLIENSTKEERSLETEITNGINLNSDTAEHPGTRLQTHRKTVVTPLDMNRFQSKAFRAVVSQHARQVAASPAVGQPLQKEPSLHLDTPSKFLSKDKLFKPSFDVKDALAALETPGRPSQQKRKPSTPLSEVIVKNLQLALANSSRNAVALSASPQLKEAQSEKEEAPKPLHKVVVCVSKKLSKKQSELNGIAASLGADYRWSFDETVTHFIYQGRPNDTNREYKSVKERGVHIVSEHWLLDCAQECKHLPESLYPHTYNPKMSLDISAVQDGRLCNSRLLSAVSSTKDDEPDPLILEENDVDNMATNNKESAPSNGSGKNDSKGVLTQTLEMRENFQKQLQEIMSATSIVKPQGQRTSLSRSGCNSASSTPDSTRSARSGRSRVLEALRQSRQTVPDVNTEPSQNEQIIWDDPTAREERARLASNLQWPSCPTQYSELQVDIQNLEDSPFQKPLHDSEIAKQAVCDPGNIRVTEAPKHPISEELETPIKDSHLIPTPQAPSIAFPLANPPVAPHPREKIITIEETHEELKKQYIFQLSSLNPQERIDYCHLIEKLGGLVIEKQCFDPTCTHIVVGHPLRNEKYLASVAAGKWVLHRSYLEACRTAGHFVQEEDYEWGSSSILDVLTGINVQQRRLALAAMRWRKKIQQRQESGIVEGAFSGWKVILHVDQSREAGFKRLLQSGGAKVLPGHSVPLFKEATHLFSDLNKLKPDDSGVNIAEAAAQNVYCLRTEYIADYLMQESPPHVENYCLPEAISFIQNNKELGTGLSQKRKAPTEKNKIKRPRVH

What was measured:
[1] = molecular target: GST-tagged human DNA topoisomerase II-binding protein 1 (GST-hTopBP1), expressed in HEK293 cells (human) (UniProt Q92547); experiment: co-IP; HEK293 cells co-transfected for 24 h; lysates precipitated with anti-GST antibody and protein A/G PLUS-agarose beads; blotted with anti-c-Myc and anti-GST
[2] = molecular target: GST-hTopBP1, bacterially expressed (human) (UniProt Q92547); experiment: pull-down; GST or GST-hTopBP1 on glutathione Sepharose beads, mixed with purified His-hMYH (1.95 μg/μl) in PBS, 16 h at 4 °C; eluted with reduced glutathione; blotted with His and GST antibodies; both purified
[3] = molecular target: human DNA topoisomerase II-binding protein 1 (hTopBP1), endogenous (human (endogenous in HEK293)) (UniProt Q92547); experiment: co-IP; endogenous proteins; HEK293 lysates precipitated with anti-hTopBP1 antibody (ImmunoCruz IP/WB Optima), 16 h at 4 °C; cells untreated or treated with 20 mM HU for 1 or 3 h; blotted with anti-hMYH and anti-hTopBP1

binding [1]: binds
B1: c-Myc-tagged human mutY homolog (c-Myc-hMYH), full length (protein, UniProt Q9UIF7 1-546)
chain: MTPLVSRLSRLWAIMRKPRAAVGSGHRKQAASQEGRQKHAKNNSQAKPSACDGMIAECPGAPAGLARQPEEVVLQASVSSYHLFRDVAEVTAFRGSLLSWYDQEKRDLPWRRRAEDEMDLDRRAYAVWVSEVMLQQTQVATVINYYTGWMQKWPTLQDLASASLEEVNQLWAGLGYYSRGRRLQEGARKVVEELGGHMPRTAETLQQLLPGVGRYTAGAIASIAFGQATGVVDGNVARVLCRVRAIGADPSSTLVSQQLWGLAQQLVDPARPGDFNQAAMELGATVCTPQRPLCSQCPVESLCRARQRVEQEQLLASGSLSGSPDVEECAPNTGQCHLCLPPSEPWDQTLGVVNFPRKASRKPPREESSATCVLEQPGALGAQILLVQRPNSGLLAGLWEFPSVTWEPSEQLQRKALLQELQRWAGPLPATHLRHLGEVVHTFSHIKLTYQVYGLALEGQTPVTTVPPGARWLTQEEFHTAAVSTAMKKVFRVYQGQQPGTCMGSKRSQVSSPCSRKKPRMGQQVLDNFFRSHISTDAHSLNSAAQ

binding [2]: binds
B2: His-hMYH, bacterially expressed (protein, UniProt Q9UIF7 1-546)
chain: B1 chain

binding [3]: binds
B3: human mutY homolog (hMYH), endogenous (protein, UniProt Q9UIF7 1-546)
chain: B1 chain
